Laboratory results taken from article doi:10.1101/2020.09.03.282103.

Chains of the proteins cited; added tags and fusions are not shown. Lines headed by an entry give the natural chain unless they say otherwise; changes in a name come on top.
UniProt P0DTD2, whole entry, stated change not applied: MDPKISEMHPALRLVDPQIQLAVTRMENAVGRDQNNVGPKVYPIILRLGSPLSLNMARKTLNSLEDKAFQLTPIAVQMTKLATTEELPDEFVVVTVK
UniProt Q13283, whole entry, stated change not applied: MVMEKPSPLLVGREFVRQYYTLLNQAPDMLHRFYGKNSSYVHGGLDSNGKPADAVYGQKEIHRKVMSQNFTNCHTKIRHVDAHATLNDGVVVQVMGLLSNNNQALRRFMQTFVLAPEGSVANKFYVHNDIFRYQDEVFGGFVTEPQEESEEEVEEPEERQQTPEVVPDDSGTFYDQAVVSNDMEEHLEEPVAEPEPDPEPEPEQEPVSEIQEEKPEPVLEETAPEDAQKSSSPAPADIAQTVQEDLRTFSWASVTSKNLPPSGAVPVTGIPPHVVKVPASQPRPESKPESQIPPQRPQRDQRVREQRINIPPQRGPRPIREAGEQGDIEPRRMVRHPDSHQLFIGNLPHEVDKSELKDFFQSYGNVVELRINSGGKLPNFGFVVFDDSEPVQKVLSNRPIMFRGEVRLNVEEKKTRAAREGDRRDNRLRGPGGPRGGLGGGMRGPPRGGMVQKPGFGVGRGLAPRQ

Experiments:
Test in all cases: proximity labelling
NSP4_Ct (SARS-CoV-2) = NSP4_Ct (SARS-CoV-2) (UniProt P0DTD1)
NSP6 (SARS-CoV-2) = NSP6 (SARS-CoV-2) (UniProt P0DTD1)
[1] = biological target: ORF9B_Ct (SARS-CoV-2), P0DTD2; settings: remark: other sources report otherwise
[2] = biological target: ORF9B_Nt (SARS-CoV-2), P0DTD2; settings: remark: other sources report otherwise
NSP9 (SARS-CoV-2) = NSP9 (SARS-CoV-2) (UniProt P0DTD1)
NSP16 (SARS-CoV-2) = NSP16 (SARS-CoV-2) (UniProt P0DTD1)
[3] = biological target: G3BP1 (miniTurbo host bait) (UniProt Q13283)

B1: MOSPD2 (protein, UniProt Q8NHP6 1-518)
chain: MAENHAQNKAKLISETRRRFEAEYVTDKSDKYDARDVERLQQDDNWVESYLSWRHNIVDETLKMLDESFQWRKEISVNDLNESSIPRWLLEIGVIYLHGYDKEGNKLFWIRVKYHVKDQKTILDKKKLIAFWLERYAKRENGKPVTVMFDLSETGINSIDMDFVRFIINCFKVYYPKYLSKIVIFDMPWLMNAAFKIVKTWLGPEAVSLLKFTSKNEVQDYVSVEYLPPHMGGTDPFKYSYPPLVDDDFQTPLCENGPITSEDETSSKEDIESDGKETLETISNEEQTPLLKKINPTESTSKAEENEKVDSKVKAFKKPLSVFKGPLLHISPAEELYFGSTESGEKKTLIVLTNVTKNIVAFKVRTTAPEKYRVKPSNSSCDPGASVDIVVSPHGGLTVSAQDRFLIMAAEMEQSSGTGPAELTQFWKEVPRNKVMEHRLRCHTVESSKPNTLTLKDNAFNMSDKTSEDICLQLSRLLESNRKLEDQVQRCIWFQQLLLSLTMLLLAFVTSFFYLLYS
binding (NSP4_Ct (SARS-CoV-2)): binds

B2: KCTD9 (protein, UniProt Q7L273 1-389)
chain: MRRVTLFLNGSPKNGKVVAVYGTLSDLLSVASSKLGIKATSVYNGKGGLIDDIALIRDDDVLFVCEGEPFIDPQTDSKPPEGLLGFHTDWLTLNVGGRYFTTTRSTLVNKEPDSMLAHMFKDKGVWGNKQDHRGAFLIDRSPEYFEPILNYLRHGQLIVNDGINLLGVLEEARFFGIDSLIEHLEVAIKNSQPPEDHSPISRKEFVRFLLATPTKSELRCQGLNFSGADLSRLDLRYINFKMANLSRCNLAHANLCCANLERADLSGSVLDCANLQGVKMLCSNAEGASLKLCNFEDPSGLKANLEGANLKGVDMEGSQMTGINLRVATLKNAKLKNCNLRGATLAGTDLENCDLSGCDLQEANLRGSNVKGAIFEEMLTPLHMSQSVR
binding (NSP6 (SARS-CoV-2)): binds

B3: USP19 (enzyme, UniProt O94966 1-1318)
chain: MSGGASATGPRRGPPGLEDTTSKKKQKDRANQESKDGDPRKETGSRYVAQAGLEPLASGDPSASASHAAGITGSRHRTRLFFPSSSGSASTPQEEQTKEGACEDPHDLLATPTPELLLDWRQSAEEVIVKLRVGVGPLQLEDVDAAFTDTDCVVRFAGGQQWGGVFYAEIKSSCAKVQTRKGSLLHLTLPKKVPMLTWPSLLVEADEQLCIPPLNSQTCLLGSEENLAPLAGEKAVPPGNDPVSPAMVRSRNPGKDDCAKEEMAVAADAATLVDEPESMVNLAFVKNDSYEKGPDSVVVHVYVKEICRDTSRVLFREQDFTLIFQTRDGNFLRLHPGCGPHTTFRWQVKLRNLIEPEQCTFCFTASRIDICLRKRQSQRWGGLEAPAARVGGAKVAVPTGPTPLDSTPPGGAPHPLTGQEEARAVEKDKSKARSEDTGLDSVATRTPMEHVTPKPETHLASPKPTCMVPPMPHSPVSGDSVEEEEEEEKKVCLPGFTGLVNLGNTCFMNSVIQSLSNTRELRDFFHDRSFEAEINYNNPLGTGGRLAIGFAVLLRALWKGTHHAFQPSKLKAIVASKASQFTGYAQHDAQEFMAFLLDGLHEDLNRIQNKPYTETVDSDGRPDEVVAEEAWQRHKMRNDSFIVDLFQGQYKSKLVCPVCAKVSITFDPFLYLPVPLPQKQKVLPVFYFAREPHSKPIKFLVSVSKENSTASEVLDSLSQSVHVKPENLRLAEVIKNRFHRVFLPSHSLDTVSPSDTLLCFELLSSELAKERVVVLEVQQRPQVPSVPISKCAACQRKQQSEDEKLKRCTRCYRVGYCNQLCQKTHWPDHKGLCRPENIGYPFLVSVPASRLTYARLAQLLEGYARYSVSVFQPPFQPGRMALESQSPGCTTLLSTGSLEAGDSERDPIQPPELQLVTPMAEGDTGLPRVWAAPDRGPVPSTSGISSEMLASGPIEVGSLPAGERVSRPEAAVPGYQHPSEAMNAHTPQFFIYKIDSSNREQRLEDKGDTPLELGDDCSLALVWRNNERLQEFVLVASKELECAEDPGSAGEAARAGHFTLDQCLNLFTRPEVLAPEEAWYCPQCKQHREASKQLLLWRLPNVLIVQLKRFSFRSFIWRDKINDLVEFPVRNLDLSKFCIGQKEEQLPSYDLYAVINHYGGMIGGHYTACARLPNDRSSQRSDVGWRLFDDSTVTTVDESQVVTRYAYVLFYRRRNSPVERPPRAGHSEHHPDLGPAAEAAASQASRIWQELEAEEEPVPEGSGPLGPWGPQDWVGPLPRGPTTPDEGCLRYFVLGTVAALVALVLNVFYPLVSQSRWR
binding (NSP6 (SARS-CoV-2)): binds

B4: MAVS, Q7Z434 1-540 (protein)
chain: MPFAEDKTYKYICRNFSNFCNVDVVEILPYLPCLTARDQDRLRATCTLSGNRDTLWHLFNTLQRRPGWVEYFIAALRGCELVDLADEVASVYQSYQPRTSDRPPDPLEPPSLPAERPGPPTPAAAHSIPYNSCREKEPSYPMPVQETQAPESPGENSEQALQTLSPRAIPRNPDGGPLESSSDLAALSPLTSSGHQEQDTELGSTHTAGATSSLTPSRGPVSPSVSFQPLARSTPRASRLPGPTGSVVSTGTSFSSSSPGLASAGAAEGKQGAESDQAEPIICSSGAEAPANSLPSKVPTTLMPVNTVALKVPANPASVSTVPSKLPTSSKPPGAVPSNALTNPAPSKLPINSTRAGMVPSKVPTSMVLTKVSASTVPTDGSSRNEETPAAPTPAGATGGSSAWLDSSSENRGLGSELSKPGVLASQVDSPFSGCFEDLAISASTSLGMGPCHGPEENEYKSEGTFGIHVAENPSIQLLEGNPGPPADPDGGPRPQADRKFQEREVPCHRPSPGALWLQVAVTGVLVVTLLVVLYRRRLH
binding [1]: binds
binding [2]: binds

B5: TOB1 (protein, UniProt P50616 1-345)
chain: MQLEIQVALNFIISYLYNKLPRRRVNIFGEELERLLKKKYEGHWYPEKPYKGSGFRCIHIGEKVDPVIEQASKESGLDIDDVRGNLPQDLSVWIDPFEVSYQIGEKGPVKVLYVDDNNENGCELDKEIKNSFNPEAQVFMPISDPASSVSSSPSPPFGHSAAVSPTFMPRSTQPLTFTTATFAATKFGSTKMKNSGRSNKVARTSPINLGLNVNDLLKQKAISSSMHSLYGLGLGSQQQPQQQQQPAQPPPPPPPPQQQQQQKTSALSPNAKEFIFPNMQGQGSSTNGMFPGDSPLNLSPLQYSNAFDVFAAYGGLNEKSFVDGLNFSLNNMQYSNQQFQPVMAN
binding (NSP9 (SARS-CoV-2)): binds

B6: IBTK (protein, UniProt Q9P2D0 1-1353)
chain: MSSPMPDCTSKCRSLKHALDVLSVVTKGSENQIKAFLSSHCYNAATIKDVFGRNALHLVSSCGKKGVLDWLIQKGVDLLVKDKESGWTALHRSIFYGHIDCVWSLLKHGVSLYIQDKEGLSALDLVMKDRPTHVVFKNTDPTDVYTWGDNTNFTLGHGSQNSKHHPELVDLFSRSGIYIKQVVLCKFHSVFLSQKGQVYTCGHGPGGRLGHGDEQTCLVPRLVEGLNGHNCSQVAAAKDHTVVLTEDGCVYTFGLNIFHQLGIIPPPSSCNVPRQIQAKYLKGRTIIGVAAGRFHTVLWTREAVYTMGLNGGQLGCLLDPNGEKCVTAPRQVSALHHKDIALSLVAASDGATVCVTTRGDIYLLADYQCKKMASKQLNLKKVLVSGGHMEYKVDPEHLKENGGQKICILAMDGAGRVFCWRSVNSSLKQCRWAYPRQVFISDIALNRNEILFVTQDGEGFRGRWFEEKRKSSEKKEILSNLHNSSSDVSYVSDINSVYERIRLEKLTFAHRAVSVSTDPSGCNFAILQSDPKTSLYEIPAVSSSSFFEEFGKLLREADEMDSIHDVTFQVGNRLFPAHKYILAVHSDFFQKLFLSDGNTSEFTDIYQKDEDSAGCHLFVVEKVHPDMFEYLLQFIYTDTCDFLTHGFKPRIHLNKNPEEYQGTLNSHLNKVNFHEDDNQKSAFEVYKSNQAQTVSERQKSKPKSCKKGKNIREDDPVRMLQTVAKKFDFSNLSSRLDGVRFENEKINVIAKNTGNKLKLSQKKCSFLCDVTMKSVDGKEFPCHKCVLCARLEYFHSMLSSSWIEASSCAALEMPIHSDILKVILDYLYTDEAVVIKESQNVDFICSVLVVADQLLITRLKEICEVALTEKLTLKNAAMLLEFAAMYSAKQLKLSCLQFIGLNMAALLEARSLDVLSDGVLKDLSEFYRKMIPAMDRRVITPYQDGPDISYLEVEDGDIFLKEEINMEQNHSETMFKKAKTKAKKKPRKRSDSSGGYNLSDIIQSPSSTGLLKSGKTNSVESLPELLTSDSEGSYAGVGSPRDLQSPDFTTGFHSDKIEAKVKPYVNGTSPVYSREDLKPWEKSPILKISAPQPIPSNRIDTTSSASWVAGSFSPVSPPVVDLRTIMEIEESRQKCGATPKSHLGKTVSHGVKLSQKQRKMIALTTKENNSGMNSMETVLFTPSKAPKPVNAWASSLHSVSSKSFRDFLLEEKKSVTSHSSGDHVKKVSFKGIENSQAPKIVRCSTHGTPGPEGNHISDLPLLDSPNPWLSSSVTAPSMVAPVTFASIVEEELQQEAALIRSREKPLALIQIEEHAIQDLLVFYEAFGNPEEFVIVERTPQGPLAVPMWNKHGC
binding (NSP16 (SARS-CoV-2)): binds

B7: UBAP2 (protein, UniProt Q5T6F2 1-1119)
chain: MMTSVSSDHCRGAREKPQISAAQSTQPQKQVVQATAEQMRLAQVIFDKNDSDFEAKVKQLMEVTGKNQDECIVALHDCNGDVNKAINILLEGNSDTTSWETVGCKKKNFAKENSENKENREKKSEKESSRGRGNNNRKGRGGNRGREFRGEENGIDCNQVDKPSDRGKRARGRGFGRGRGRGAGRFSTQGMGTFNPADYSDSTSTDVCGTKLVVWEAAQNGADEGTELASNTHNIAQDLSNKSSYGLKGAWKNSVEEWTTEDWTEDLSETKVFTASSAPAENHILPGQSIDLVALLQKPVPHSQASEANSFETSQQQGFGQALVFTNSQHNNQMAPGTGSSTAVNSCSPQSLSSVLGSGFGELAPPKMANITSSQILDQLKAPSLGQFTTTPSTQQNSTSHPTTTTSWDLKPPTSQSSVLSHLDFKSQPEPSPVLSQLSQRQQHQSQAVTVPPPGLESFPSQAKLRESTPGDSPSTVNKLLQLPSTTIENISVSVHQPQPKHIKLAKRRIPPASKIPASAVEMPGSADVTGLNVQFGALEFGSEPSLSEFGSAPSSENSNQIPISLYSKSLSEPLNTSLSMTSAVQNSTYTTSVITSCSLTSSSLNSASPVAMSSSYDQSSVHNRIPYQSPVSSSESAPGTIMNGHGGGRSQQTLDTPKTTGPPSALPSVSSLPSTTSCTALLPSTSQHTGDLTSSPLSQLSSSLSSHQSSLSAHAALSSSTSHTHASVESASSHQSSATFSTAATSVSSSASSGASLSSSMNTANSLCLGGTPASASSSSSRAAPLVTSGKAPPNLPQGVPPLLHNQYLVGPGGLLPAYPIYGYDELQMLQSRLPVDYYGIPFAAPTALASRDGSLANNPYPGDVTKFGRGDSASPAPATTPAQPQQSQSQTHHTAQQPFVNPALPPGYSYTGLPYYTGMPSAFQYGPTMFVPPASAKQHGVNLSTPTPPFQQASGYGQHGYSTGYDDLTQGTAAGDYSKGGYAGSSQAPNKSAGSGPGKGVSVSSSTTGLPDMTGSVYNKTQTFDKQGFHAGTPPPFSLPSVLGSTGPLASGAAPGYAPPPFLHILPAHQQPHSQLLHHHLPQDAQSGSGQRSQPSSLQPKSQASKPAYGNSPYWTN
binding [3]: binds

No constants are given. Whether binding was seen depends on the method and setting. In cells and extracts the contact can be indirect. A yes stands for co-enrichment or nearness to the bait. Other partners may have been found.
